# Results as given in the supplement of paper PMC8728848.
# This is one part of the list.
# Assays:
# Assay in all cases: glycan array binding signal (z-score within array); higher = stronger binding
# Details in all cases: glycan notation: IUPAC condensed, linker removed
# [1] = molecular target: GlcNAc(b1-3)Gal(b1-4)GlcNAc(b1-3)Gal(b1-4)GlcNAc(b1-2)Man(a1-3)[GlcNAc(b1-3)Gal(b1-4)GlcNAc(b1-3)Gal(b1-4)GlcNAc(b1-2)Man(a1-6)]Man(b1-4)GlcNAc(b1-4)[Fuc(a1-6)]GlcNAc
# Summary of the method: (§1)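 The binding signal is a Z-score computed within each array and averaged over linkers. Arrays of the same protein sequence at different concentrations or buffers were also averaged together. Data originate from 3228 arrays in the Consortium for Functional Glycomics database, kept only where the protein sequence was available.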
# [2] = molecular target: GlcNAc(b1-3)Gal(b1-4)GlcNAc(b1-3)Gal(b1-4)GlcNAc(b1-2)[GlcNAc(b1-3)Gal(b1-4)GlcNAc(b1-3)Gal(b1-4)GlcNAc(b1-6)]Man(a1-6)[GlcNAc(b1-3)Gal(b1-4)GlcNAc(b1-3)Gal(b1-4)GlcNAc(b1-2)Man(a1-3)]Man(b1-4)GlcNAc(b1-4)[Fuc(a1-6)]GlcNAc
# Summary of the method: as §1
# [3] = molecular target: GlcNAc(b1-3)Gal(b1-4)GlcNAc(b1-3)Gal(b1-4)GlcNAc(b1-3)Gal(b1-4)GlcNAc(b1-2)Man(a1-3)[GlcNAc(b1-3)Gal(b1-4)GlcNAc(b1-3)Gal(b1-4)GlcNAc(b1-3)Gal(b1-4)GlcNAc(b1-2)Man(a1-6)]Man(b1-4)GlcNAc(b1-4)GlcNAc
# Summary of the method: as §1
# [4] = molecular target: GlcNAc(b1-3)Gal(b1-4)GlcNAc(b1-3)Gal(b1-4)GlcNAc(b1-3)Gal(b1-4)GlcNAc(b1-2)Man(a1-3)[GlcNAc(b1-3)Gal(b1-4)GlcNAc(b1-3)Gal(b1-4)GlcNAc(b1-3)Gal(b1-4)GlcNAc(b1-2)Man(a1-6)]Man(b1-4)GlcNAc(b1-4)[Fuc(a1-6)]GlcNAc
# Summary of the method: as §1
# [5] = molecular target: GlcNAc(b1-3)Gal(b1-4)GlcNAc(b1-3)Gal(b1-4)GlcNAc(b1-3)Gal(b1-4)GlcNAc(b1-2)[GlcNAc(b1-3)Gal(b1-4)GlcNAc(b1-3)Gal(b1-4)GlcNAc(b1-3)Gal(b1-4)GlcNAc(b1-6)]Man(a1-6)[GlcNAc(b1-3)Gal(b1-4)GlcNAc(b1-3)Gal(b1-4)GlcNAc(b1-3)Gal(b1-4)GlcNAc(b1-2)Man(a1-3)]Man(b1-4)GlcNAc(b1-4)[Fuc(a1-6)]GlcNAc
# Summary of the method: as §1
# [6] = molecular target: GlcNAc(b1-3)Gal(b1-4)GlcNAc(b1-3)Gal(b1-4)GlcNAc(b1-3)Gal(b1-4)GlcNAc(b1-3)Gal(b1-4)GlcNAc(b1-2)Man(a1-3)[GlcNAc(b1-3)Gal(b1-4)GlcNAc(b1-3)Gal(b1-4)GlcNAc(b1-3)Gal(b1-4)GlcNAc(b1-3)Gal(b1-4)GlcNAc(b1-2)Man(a1-6)]Man(b1-4)GlcNAc(b1-4)GlcNAc
# Summary of the method: as §1
# [7] = molecular target: GlcNAc(b1-3)Gal(b1-4)GlcNAc(b1-3)Gal(b1-4)GlcNAc(b1-3)Gal(b1-4)GlcNAc(b1-3)Gal(b1-4)GlcNAc(b1-2)Man(a1-3)[GlcNAc(b1-3)Gal(b1-4)GlcNAc(b1-3)Gal(b1-4)GlcNAc(b1-3)Gal(b1-4)GlcNAc(b1-3)Gal(b1-4)GlcNAc(b1-2)Man(a1-6)]Man(b1-4)GlcNAc(b1-4)[Fuc(a1-6)]GlcNAc
# Summary of the method: as §1
# [8] = molecular target: GlcNAc(b1-3)Gal(b1-4)GlcNAc(b1-3)Gal(b1-4)GlcNAc(b1-3)Gal(b1-4)GlcNAc(b1-3)Gal(b1-4)GlcNAc(b1-2)[GlcNAc(b1-3)Gal(b1-4)GlcNAc(b1-3)Gal(b1-4)GlcNAc(b1-3)Gal(b1-4)GlcNAc(b1-3)Gal(b1-4)GlcNAc(b1-6)]Man(a1-6)[GlcNAc(b1-3)Gal(b1-4)GlcNAc(b1-3)Gal(b1-4)GlcNAc(b1-3)Gal(b1-4)GlcNAc(b1-3)Gal(b1-4)GlcNAc(b1-2)Man(a1-3)]Man(b1-4)GlcNAc(b1-4)[Fuc(a1-6)]GlcNAc
# Summary of the method: as §1
# [9] = molecular target: GlcNAc(b1-3)Gal(b1-4)GlcNAc(b1-3)Gal(b1-4)GlcNAc(b1-3)GalNAc
# Summary of the method: as §1
# [10] = molecular target: GlcNAc(b1-3)Gal(b1-4)GlcNAc(b1-3)GalNAc
# Summary of the method: as §1
# [11] = molecular target: GlcNAc(b1-3)Gal(b1-4)GlcNAc(b1-3)[GlcNAc(b1-3)Gal(b1-4)GlcNAc(b1-3)]GalNAc
# Summary of the method: as §1
# [12] = molecular target: GlcNAc(b1-3)Gal(b1-4)GlcNAc(b1-6)[Gal(b1-3)]GalNAc
# Summary of the method: as §1
# [13] = molecular target: GlcNAc(b1-3)Gal(b1-4)GlcNAc(b1-6)[GlcNAc(b1-3)Gal(b1-3)]GalNAc
# Summary of the method: as §1
# [14] = molecular target: GlcNAc(b1-3)Gal(b1-4)GlcNAc(b1-6)[GlcNAc(b1-3)]Gal(b1-4)GlcNAc
# Summary of the method: as §1
# GlcNAc(b1-3)GalNAc = molecular target: GlcNAc(b1-3)GalNAc
# Summary of the method: as §1
# GlcNAc(b1-3)Man = molecular target: GlcNAc(b1-3)Man
# Summary of the method: as §1
# [15] = molecular target: GlcNAc(b1-3)[GlcNAc(b1-4)][GlcNAc(b1-6)]GlcNAc
# Summary of the method: as §1
# [16] = molecular target: GlcNAc(b1-3)[GlcNAc(b1-6)]Gal(b1-4)GlcNAc
# Summary of the method: as §1
# [17] = molecular target: GlcNAc(b1-3)[GlcNAc(b1-6)]GalNAc
# Summary of the method: as §1
# [18] = molecular target: GlcNAc(b1-4)Gal(b1-4)GlcNAc
# Summary of the method: as §1
# GlcNAc(b1-4)GlcNAc = molecular target: GlcNAc(b1-4)GlcNAc
# Summary of the method: as §1
# [19] = molecular target: GlcNAc(b1-4)GlcNAc(b1-4)GlcNAc
# Summary of the method: as §1
# [20] = molecular target: GlcNAc(b1-4)GlcNAc(b1-4)GlcNAc(b1-4)GlcNAc(b1-4)GlcNAc
# Summary of the method: as §1
# [21] = molecular target: GlcNAc(b1-4)GlcNAc(b1-4)GlcNAc(b1-4)GlcNAc(b1-4)GlcNAc(b1-4)GlcNAc
# Summary of the method: as §1
# [22] = molecular target: GlcNAc(b1-4)[GlcNAc(b1-6)]GalNAc
# Summary of the method: as §1
# [23] = molecular target: GlcNAc(b1-6)Gal(b1-4)GlcNAc
# Summary of the method: as §1
# GlcNAc(b1-6)GalNAc = molecular target: GlcNAc(b1-6)GalNAc
# Summary of the method: as §1
# [24] = molecular target: GlcNAc6S(b1-3)Gal(b1-4)GlcNAc
# Summary of the method: as §1
# Kdn(a2-3)Gal(b1-3)GalNAc = molecular target: Kdn(a2-3)Gal(b1-3)GalNAc
# Summary of the method: as §1
# Kdn(a2-3)Gal(b1-3)GlcNAc = molecular target: Kdn(a2-3)Gal(b1-3)GlcNAc
# Summary of the method: as §1
# Kdn(a2-3)Gal(b1-4)Glc = molecular target: Kdn(a2-3)Gal(b1-4)Glc
# Summary of the method: as §1
# Kdn(a2-3)Gal(b1-4)GlcNAc = molecular target: Kdn(a2-3)Gal(b1-4)GlcNAc
# Summary of the method: as §1
# [25] = molecular target: Kdn(a2-3)Gal(b1-4)[Fuc(a1-3)]GlcNAc
# Summary of the method: as §1
# Kdn(a2-6)Gal(b1-4)GlcNAc = molecular target: Kdn(a2-6)Gal(b1-4)GlcNAc
# Summary of the method: as §1
# [26] = molecular target: Man(a1-2)Man(a1-2)Man(a1-3)Man
# Summary of the method: as §1
# [27] = molecular target: Man(a1-2)Man(a1-2)Man(a1-6)[Man(a1-3)]Man
# Summary of the method: as §1
# Man(a1-2)Man(a1-3)Man = molecular target: Man(a1-2)Man(a1-3)Man
# Summary of the method: as §1
# [28] = molecular target: Man(a1-2)Man(a1-3)[Man(a1-2)Man(a1-6)]Man
# Summary of the method: as §1
binder,measurement,setting,value
PX14343C-bfa-541-26-541 (Bacteroides fragilis) (protein) KAPLDEIADDSFWSDETLVKYYVNDLYSEISVDGLQLQENRSDNSVSAQRDKYRASWFKFNYDMVSASDPQDDDVWEDYYVKVRKCNRFFERIGTSTIEESEKSRLTGEVHFLRAMFYFEMVKRYGGVILLDKVLTMEDNWEIPRSSEKECYDFILEDLKKATEMLPASYGSREKGRATKGAAYALKSRVELYDKRYEDVIKSCAEVYKLGYELVDGTTPEKYRSIWWTTNKDNKEIIFDVQYKSPDVYNNMMVCNMVTYINDKYGDRGWGGLGPTQELIDAFEMADGTPATQYSQAPADQVFDINTCGIYEGREPRFYANIVFHGSQIFFNADKGAVTVDRYLMDTPDKGDGSLTGYNVWKWIDYDNYNYPYAGAGSPDFSTNWIILRYAEIYLNDAEARLETGDVEGARKAVNMIRQRVGLPDLTESDPEKLRELIRKERRIEFAFEEQRFYDVRRWKIGPETQTTLHGVRFVSPTEFKVTKTDIRTWNDRLYLTPVPHDEIVRSSVLKQNLGY,glycan array binding signal (z-score),[1],0.475
same,glycan array binding signal (z-score),[2],0.203
same,glycan array binding signal (z-score),[3],-0.345
same,glycan array binding signal (z-score),[4],0.742
same,glycan array binding signal (z-score),[5],-1.07
same,glycan array binding signal (z-score),[6],0.029
same,glycan array binding signal (z-score),[7],0.103
same,glycan array binding signal (z-score),[8],0.52
same,glycan array binding signal (z-score),[9],-0.553
same,glycan array binding signal (z-score),[10],0.215
same,glycan array binding signal (z-score),[11],-0.69
same,glycan array binding signal (z-score),[12],0.164
same,glycan array binding signal (z-score),[13],-0.265
same,glycan array binding signal (z-score),[14],0.526
same,glycan array binding signal (z-score),GlcNAc(b1-3)GalNAc,0.038
same,glycan array binding signal (z-score),GlcNAc(b1-3)Man,-0.424
same,glycan array binding signal (z-score),[15],-0.45
same,glycan array binding signal (z-score),[16],0.293
same,glycan array binding signal (z-score),[17],-0.521
same,glycan array binding signal (z-score),[18],-0.788
same,glycan array binding signal (z-score),GlcNAc(b1-4)GlcNAc,-0.488
same,glycan array binding signal (z-score),[19],0.281
same,glycan array binding signal (z-score),[20],-1.29
same,glycan array binding signal (z-score),[21],-0.569
same,glycan array binding signal (z-score),[22],0.904
same,glycan array binding signal (z-score),[23],-1.19
same,glycan array binding signal (z-score),GlcNAc(b1-6)GalNAc,0.031
same,glycan array binding signal (z-score),[24],-0.281
same,glycan array binding signal (z-score),Kdn(a2-3)Gal(b1-3)GalNAc,-0.183
same,glycan array binding signal (z-score),Kdn(a2-3)Gal(b1-3)GlcNAc,-0.157
same,glycan array binding signal (z-score),Kdn(a2-3)Gal(b1-4)Glc,-0.776
same,glycan array binding signal (z-score),Kdn(a2-3)Gal(b1-4)GlcNAc,-0.977
same,glycan array binding signal (z-score),[25],1.81
same,glycan array binding signal (z-score),Kdn(a2-6)Gal(b1-4)GlcNAc,-0.189
same,glycan array binding signal (z-score),[26],-0.962
same,glycan array binding signal (z-score),[27],-0.015
same,glycan array binding signal (z-score),Man(a1-2)Man(a1-3)Man,-0.305
same,glycan array binding signal (z-score),[28],1.01

# Part of the list above, with bars between the fields:
binder | measurement | setting | value
PX14343C-bfa-541-26-541 (Bacteroides fragilis) (protein) KAPLDEIADDSFWSDETLVKYYVNDLYSEISVDGLQLQENRSDNSVSAQRDKYRASWFKFNYDMVSASDPQDDDVWEDYYVKVRKCNRFFERIGTSTIEESEKSRLTGEVHFLRAMFYFEMVKRYGGVILLDKVLTMEDNWEIPRSSEKECYDFILEDLKKATEMLPASYGSREKGRATKGAAYALKSRVELYDKRYEDVIKSCAEVYKLGYELVDGTTPEKYRSIWWTTNKDNKEIIFDVQYKSPDVYNNMMVCNMVTYINDKYGDRGWGGLGPTQELIDAFEMADGTPATQYSQAPADQVFDINTCGIYEGREPRFYANIVFHGSQIFFNADKGAVTVDRYLMDTPDKGDGSLTGYNVWKWIDYDNYNYPYAGAGSPDFSTNWIILRYAEIYLNDAEARLETGDVEGARKAVNMIRQRVGLPDLTESDPEKLRELIRKERRIEFAFEEQRFYDVRRWKIGPETQTTLHGVRFVSPTEFKVTKTDIRTWNDRLYLTPVPHDEIVRSSVLKQNLGY | glycan array binding signal (z-score) | [21] | -0.569
same | glycan array binding signal (z-score) | [22] | 0.904
